Construct, isoform or probe ends are uncertain for at least one entry. For part of these data: Weaker means in comparison with the reference protein, sequence or condition of that experiment. At least one verdict was read from the data and is not stated in words by the source.
Tests used:
[1] = test system: MBP-GmRR11d (Glycine max); assay: EMSA / DNA pull-down; conditions: EMSA: LightShift Chemiluminescent EMSA Kit (Pierce), 5' biotin probe, 200-fold unlabeled competitor; recombinant protein; protein details: MBP (N-term, pMAL-c2X); label: 5' biotin
GST-GmNSP1a = GST-GmNSP1a (UniProt A0A2P0P9P4); assay: EMSA; conditions: EMSA: LightShift Chemiluminescent EMSA Kit (Pierce), 5' biotin probe, 200-fold unlabeled competitor, recombinant protein, residues 1-543, protein details: GST (N-term, pGEX-4T-1), label: 5' biotin

Row | Sequence | binding result [1] | binding result (GST-GmNSP1a) | binding result (GST-GmNSP1a; plus GmRR11d)
1 | CGTGGTATCAACTTGGGATTAGGATGACAGAGTGC (double strand) [GmRR11d probe 1 (GmNIN1a promoter)] | binds |  | 
2 | GTGTTAGTTTTTTAAATTTGATTTGAACTTTTTA (double strand) [GmNSP1a probe 2 (GmNIN1a promoter)] |  | binds | binds more weakly
3 | TATAATTACAATTTTTCAAAAGCTATAATTTTAAAATAAC (double strand) [GmNSP1a probe 1 (GmNIN1a promoter)] |  | binds | binds more weakly
4 | TTCAAAAAATCTGTAGGATTGCCACGTGGAACATG (double strand) [GmRR11d probe 2 (GmNIN1a promoter)] | binds |  | 

— publication PMC9741591
